PubChem BioAssay AID686937 – Drosophila RNAi Screening Center – 2013
Aim: 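Genes whose loss weakens secretory pathway function in fly cells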 (primary screen). System: Drosophila S2 cells expressing secreted horseradish peroxidase. Reagent: long dsRNA against Drosophila genes. Timing: about 5.5 days (5 days dsRNA, then 12 h reporter induction). Conditions: reporter expression induced after 5 days of dsRNA, read 12 h later; inducer not stated. Measured: 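Chemiluminescent measurement of peroxidase in the medium 12 h after reporter induction, following 5 days of dsRNA, given as a z-score per plate; higher means more secretion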. Reading the numbers: z-score: higher = more reporter secreted into medium.
The deposit covers about 23,000 reagents; shown is a random part of those with a known target gene and a result. 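Reduced-secretion tags in replicate 1 do not always agree with the z-scores; no criterion for assigning the tags was given.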 Further read-outs or replicates are left out here. Not stated in the record: the amount of reagent.

Against PGRP-SC1b [SID104187007], the values are z-score, replicate 1 = 0.37.
l(3)psg2 [SID104190276] scored z-score, replicate 1 = 0.58.
CG32181 [SID104202043] scored z-score, replicate 1 = 0.08.
P5cr [SID104196574] scored z-score, replicate 1 = 0.36.
After knock-down of GstZ2 [SID104196271], the screen gave z-score, replicate 1 = 0.33.
CG4702 [SID104195418] showed z-score, replicate 1 = 0.26.
Aldh7A1 [SID104190875] gave z-score, replicate 1 = 0.29.
Pde11 [SID104181820] showed z-score, replicate 1 = 0.86.
Depletion of Pde11 [SID104182252] gave: z-score, replicate 1 = -0.42.
Knock-down of CG11902 [SID104194226] resulted in: z-score, replicate 1 = -2.21.
After knock-down of noc [SID104183372], the record shows z-score, replicate 1 = 0.32.
Against Grl62c [SID104187756] the deposit lists z-score, replicate 1 = 0.27.
For CG3036 [SID104180052], the entry reads z-score, replicate 1 = 0.19.
Silencing of CG3036 [SID104180354] came out at: z-score, replicate 1 = 0.36.
CG30098 [SID104185397] scored z-score, replicate 1 = -0.02.
CG9485 [SID104184349] showed z-score, replicate 1 = 0.14.
After knock-down of SmydA-3 [SID104182357] the results were z-score, replicate 1 = -0.27.
Knock-down of SmydA-3 [SID104182358] gave: z-score, replicate 1 = -0.51.
Against CG3862 [SID104180423] the deposit lists z-score, replicate 1 = 0.4.
CG31751 [SID104182256] gave z-score, replicate 1 = 0.38.
CG31751 [SID104182257] scored z-score, replicate 1 = 0.35.
CG43315 [SID104186088] scored z-score, replicate 1 = 0.08.
CG33298 [SID104182002] showed z-score, replicate 1 = 0.31.
CG33298 [SID104182464] showed z-score, replicate 1 = 0.37.
For qin [SID104194574] the deposit lists z-score, replicate 1 = 0.1.
For qin [SID104194577] the deposit lists z-score, replicate 1 = 0.3.
Knock-down of mbl [SID104185449] gave: z-score, replicate 1 = 0.26.
mbl [SID104186241] showed z-score, replicate 1 = 0.49.
Against mbl [SID104187443], the values are z-score, replicate 1 = -0.84.
After knock-down of CG31100 [SID104194245] the results were z-score, replicate 1 = 0.39.
CG31100 [SID104194247] scored z-score, replicate 1 = 0.09.
With knock-down of Reph [SID104180426], the screen gave z-score, replicate 1 = 0.18.
Knock-down of Reph [SID104201615] came out at: z-score, replicate 1 = 0.51.
Against CG10353 [SID104199146], the values are z-score, replicate 1 = -0.55.
lt [SID104183551] showed z-score, replicate 1 = 0.03.
Depletion of Mcm3 [SID104198471] came out at: z-score, replicate 1 = 0.19.
With knock-down of CG7465 [SID104188384], the screen gave z-score, replicate 1 = 0.35.
For CG7465 [SID104201823], the values are z-score, replicate 1 = -0.92.
For colt [SID104180600] the deposit lists z-score, replicate 1 = 0.13.
eIF4E5 [SID104190767] scored z-score, replicate 1 = 0.49.

5 entries already listed, ordered by “z-score, replicate 1”, lowest first.
CG11902 [SID104194226] | z-score, replicate 1: -2.21
Pde11 [SID104182252] | z-score, replicate 1: -0.42
CG3036 [SID104180052] | z-score, replicate 1: 0.19
Grl62c [SID104187756] | z-score, replicate 1: 0.27
noc [SID104183372] | z-score, replicate 1: 0.32
